Results are given in words; binding and its absence hold for the method and conditions named. In cells and extracts the contact can be indirect. Some entries that bind do so weakly or less than the wild type.
How the values were obtained:
[1] = biological target: Negative Elongation Factor E (NELFE) (human (endogenous in Hep3B, Huh1, HLE and HCC patient tissue)) (UniProt P18615); assay: co-IP; endogenous SMARCB1 and NELFE, both directions, three HCC cell lines, immunoblot
[2] = biological target: eNELFE-eGFP (endogenous NELFE tagged with eGFP at the C terminus by CRISPR/Cas9 HDR knock-in) (human (endogenous locus in HCC cell lines)) (UniProt P18615); assay: co-IP; SMARCB1 and NELFE, both directions, in WT eNE-eGFP and eNEΔLCS1-eGFP cells, immunoblot
[3] = biological target: eNELFE-eGFP (endogenous NELFE tagged with eGFP at the C terminus by CRISPR/Cas9 HDR knock-in) (human (endogenous locus in HCC cell lines)) (UniProt P18615); assay: proximity ligation; in situ in eNE-eGFP knock-in HCC cells (HLE in Figure 6I), WT and ΔLCS1 mutant; SMARCB1 and GFP antibodies; foci/nuclei counted
[4] = biological target: Negative Elongation Factor E (NELFE) (human (endogenous in Hep3B, Huh1, HLE and HCC patient tissue)) (UniProt P18615); assay: proximity ligation; HCC patient tissue microarrays (FFPE); SMARCB1 and NELFE antibodies; foci/nuclei counted, NELFE-High against NELFE-Low subgroup

The chains behind the UniProt entries cited, without tags or fusion partners.
UniProt P18615: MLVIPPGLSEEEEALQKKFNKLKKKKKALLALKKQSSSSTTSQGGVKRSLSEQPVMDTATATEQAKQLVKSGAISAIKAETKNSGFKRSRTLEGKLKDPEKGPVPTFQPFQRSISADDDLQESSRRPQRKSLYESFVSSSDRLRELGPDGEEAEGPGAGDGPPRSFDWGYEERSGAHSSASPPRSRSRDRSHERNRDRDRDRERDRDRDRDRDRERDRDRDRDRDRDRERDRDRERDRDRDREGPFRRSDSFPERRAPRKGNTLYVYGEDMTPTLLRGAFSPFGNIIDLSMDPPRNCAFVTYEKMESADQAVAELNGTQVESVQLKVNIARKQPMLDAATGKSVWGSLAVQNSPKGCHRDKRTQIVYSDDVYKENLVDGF
UniProt Q12824: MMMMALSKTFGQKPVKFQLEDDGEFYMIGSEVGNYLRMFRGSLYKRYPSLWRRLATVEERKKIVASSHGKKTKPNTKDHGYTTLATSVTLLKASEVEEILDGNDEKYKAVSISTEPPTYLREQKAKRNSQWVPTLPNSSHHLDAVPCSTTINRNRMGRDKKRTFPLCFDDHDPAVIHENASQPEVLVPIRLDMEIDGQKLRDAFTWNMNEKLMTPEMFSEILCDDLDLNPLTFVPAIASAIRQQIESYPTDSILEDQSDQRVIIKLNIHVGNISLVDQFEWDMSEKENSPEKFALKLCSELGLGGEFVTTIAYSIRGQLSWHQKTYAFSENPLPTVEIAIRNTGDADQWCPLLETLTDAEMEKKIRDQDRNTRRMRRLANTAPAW

binding [1]: binds
binding [2]: binds
binding [3]: binds
binding [4]: binds
Substance: SMARCB1 (from UniProt Q12824 1-385)

Reference: PMC12045374
